From PMC7819943, “Rice protein-binding microarrays: a tool to detect cis-acting elements near promoter regions in rice”
The list shows a part of the results.

These sequences were tested against T1, OsSMF1 (Oryza sativa, UniProt Q6ZLB0 1-436) (assay: protein-binding microarray (RPBM); PBS, 2% BSA, 51.3 ng/ul salmon testes DNA, 50 uM zinc acetate, 200 nM TF, 25 C, 1 h; high values mean tight binding). Details: protein: recombinant; tags: N-terminal polyhistidine and DsRed monomer fusion (pET32a); chain copies: 2; label: CyDye5-dUTP incorporated in the synthesized complementary strand; 3' TTTTT single-stranded linker to array surface; dsDNA, one strand shown.
T1 sequence: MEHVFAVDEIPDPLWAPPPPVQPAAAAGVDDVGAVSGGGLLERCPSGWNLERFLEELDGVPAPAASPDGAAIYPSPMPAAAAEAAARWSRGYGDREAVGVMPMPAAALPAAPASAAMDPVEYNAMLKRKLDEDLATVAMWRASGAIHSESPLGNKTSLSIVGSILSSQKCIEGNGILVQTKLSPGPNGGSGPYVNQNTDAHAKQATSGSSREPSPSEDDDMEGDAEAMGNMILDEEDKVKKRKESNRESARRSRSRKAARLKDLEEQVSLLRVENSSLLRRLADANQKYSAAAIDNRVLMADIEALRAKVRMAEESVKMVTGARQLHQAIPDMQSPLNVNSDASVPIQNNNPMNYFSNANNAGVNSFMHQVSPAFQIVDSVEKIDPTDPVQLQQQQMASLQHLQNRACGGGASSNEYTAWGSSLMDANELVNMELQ
How it was run: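 In PBS with 2% BSA, salmon testes DNA and 50 µM zinc acetate, 200 nM protein was incubated on a custom Agilent array at 25 °C for 1 h and then washed off. The array had been made double-stranded by primer extension with Cy5-dUTP and blocked with 2% BSA. The proteins were transcription factors fused N-terminally to polyhistidine and DsRed, expressed in E. coli BL21-CodonPlus and purified on Ni–NTA. The binding signal is per-feature fluorescence intensity (arbitrary units) from an Axon 4000B scanner.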
For “CACTAGCTTGTTATATTTACGTGGCACACTTTGATGAGTACGGAGTCACCTAGTGCAG”, the binding signal was 11500 fluorescence intensity (a.u.).
For “CGCGGTGATTCGGAATACTCGGCGGCGTCTGTATCCGTCTCGGAGTCACCTAGTGCAG”, the binding signal was 4800 fluorescence intensity (a.u.).
With “ATAAATACCGCGATAACCTCCTTAAATTCAAATAAATTTACGGAGTCACCTAGTGCAG” the binding signal was 54800 fluorescence intensity (a.u.).
“GGGCGGCGACGACGGTCACGGCGGACAAGGGCGGCGGCAACGGAGTCACCTAGTGCAG” was tested, and the binding signal was 3160 fluorescence intensity (a.u.).
“CGTTGTATGGCCGACGCGGCGAGTCACCAAGACGATAGACCGGAGTCACCTAGTGCAG” was tested, and the binding signal was 3450 fluorescence intensity (a.u.).
With “TGATCTTGGGCCCAGCTGAGCCCCTGATCACTGCCGGCCACGGAGTCACCTAGTGCAG” the binding signal was 4720 fluorescence intensity (a.u.).
With “CGGGCCGGCACGGCTACTGTAGTGGCACGTGGGCTGGTAGCGGAGTCACCTAGTGCAG” the binding signal was 5100 fluorescence intensity (a.u.).
“ATATTTATTTATGCAATTTATCGCGCATGTTAACCATTCACGGAGTCACCTAGTGCAG” was tested, and the binding signal was 3410 fluorescence intensity (a.u.).
In the case of “CGCTGACCAGTCAAACCACCTCCTCCACTTGTCACTTCCACGGAGTCACCTAGTGCAG”, the binding signal is reported as 4120 fluorescence intensity (a.u.).
In the case of “TGCCGCCCGACTGATGCACGTCAGTCGGGTCTGACCAGTCCGGAGTCACCTAGTGCAG”, the binding signal is reported as 3440 fluorescence intensity (a.u.).
With “GCCGTCCGCCGTGAGCCGGTGCTGTCCACGACGTCGTCTTCGGAGTCACCTAGTGCAG” the binding signal was 3360 fluorescence intensity (a.u.).
For “AGGTTCTTGCGTTTGCTGATGATCAGTGTGCTACTACTGTCGGAGTCACCTAGTGCAG”, the binding signal was 3140 fluorescence intensity (a.u.).
“GACGACGGCGGTGAAAGAGATCCATGTCATCGCCACCGTGCGGAGTCACCTAGTGCAG” was tested, and the binding signal was 8850 fluorescence intensity (a.u.).
With “AATGAAATTAAACACACCCAACAAAATAAAAGACCAAACCCGGAGTCACCTAGTGCAG” the binding signal was 3140 fluorescence intensity (a.u.).
With “TCCTCCCGCCGCCCCTGGTTGCCGCTCCTCGGCCACGCGGCGGAGTCACCTAGTGCAG” the binding signal was 4400 fluorescence intensity (a.u.).
With “CGCGGTTCGGGCTGACGTCAGGCCGTGTACTGACTCAGGGCGGAGTCACCTAGTGCAG” the binding signal was 8330 fluorescence intensity (a.u.).
“CCCCTGAGACAGAGGACGATGAGTCACCACCTCACCGCCTCGGAGTCACCTAGTGCAG” was tested, and the binding signal was 16100 fluorescence intensity (a.u.).
With “CGTGCACACGTGCAAATTAACTTTTGAATTCGAGTCTTTGCGGAGTCACCTAGTGCAG” the binding signal was 4630 fluorescence intensity (a.u.).
“CCACCGGAAACAGGGAAGAAGAGGGGTCGAGAAAGGGGAGCGGAGTCACCTAGTGCAG” was tested, and the binding signal was 4020 fluorescence intensity (a.u.).
In the case of “TTCCAATAATTCTATTCTCCTTACGTGACGCTATGCTGGTCGGAGTCACCTAGTGCAG”, the binding signal is reported as 5480 fluorescence intensity (a.u.).
With “GTTTGTACGTACTACGTAGTACATCGGATCGTACGTACTGCGGAGTCACCTAGTGCAG” the binding signal was 3260 fluorescence intensity (a.u.).
With “CATTTCTCTGTAATGCTTTTCGATTAGGATGCCATTAATTCGGAGTCACCTAGTGCAG” the binding signal was 3350 fluorescence intensity (a.u.).
In the case of “CGGGCATATGGGGCGGTGATGGCGTCGGCACCGCTGTTGTCGGAGTCACCTAGTGCAG”, the binding signal is reported as 3930 fluorescence intensity (a.u.).
For “GCGTCGTTCCCGCACTCGTCGCCGCTGCAGCGCGAGGGCCCGGAGTCACCTAGTGCAG”, the binding signal was 3790 fluorescence intensity (a.u.).
For “TCTCCCCGCCGCCTCGCCGCCTCGCAAGCGCCACCCCGCCCGGAGTCACCTAGTGCAG”, the binding signal was 3290 fluorescence intensity (a.u.).
In the case of “TGCCACATGCATTGGTGGCACTAATTACTATCCATCATGTCGGAGTCACCTAGTGCAG”, the binding signal is reported as 3310 fluorescence intensity (a.u.).
In the case of “TGATACTGTCGCAGCTGTGCTACACGCTCATGTACTTCATCGGAGTCACCTAGTGCAG”, the binding signal is reported as 3370 fluorescence intensity (a.u.).
With “ACATCATGCCACATGCTTCCAAGAAGGATCCCATAGATGTCGGAGTCACCTAGTGCAG” the binding signal was 4220 fluorescence intensity (a.u.).
“TTAATTTGGAGGAATTGTTTTCCGATTTTAGATATATATACGGAGTCACCTAGTGCAG” was tested, and the binding signal was 3680 fluorescence intensity (a.u.).
With “CCCGTGACGTGGCCGCGACAACCGCCGACCCGCCTCTCCCCGGAGTCACCTAGTGCAG” the binding signal was 13900 fluorescence intensity (a.u.).
For “TCCCATCATTCGCTGACCGGCTGGAGACGGCGGTGAAGCGCGGAGTCACCTAGTGCAG”, the binding signal was 3830 fluorescence intensity (a.u.).
With “AGAAATGAGAATAATCATGCCACATGTCACCAAACGATTGCGGAGTCACCTAGTGCAG” the binding signal was 3380 fluorescence intensity (a.u.).
For “CAGCTCGGCGCCGACGATGTCGACCCCGTCGTGGCCATTCCGGAGTCACCTAGTGCAG”, the binding signal was 3740 fluorescence intensity (a.u.).
In the case of “TCCGGGAGACACGGAGCCACGTTGCCTCGTGTCACCCCGTCGGAGTCACCTAGTGCAG”, the binding signal is reported as 7210 fluorescence intensity (a.u.).
In the case of “ATCGCCCCGCCCTCCTCGCCGCGCGGATTCGCTCGCCGCCCGGAGTCACCTAGTGCAG”, the binding signal is reported as 3340 fluorescence intensity (a.u.).
With “GCTGGGAGCACCGGCCACATCAATGAATCATACTGTACTACGGAGTCACCTAGTGCAG” the binding signal was 4220 fluorescence intensity (a.u.).
In the case of “TCTGGCGAGTCGGCGGCTCCCCGGCGGCGCGGTGACTCGGCGGAGTCACCTAGTGCAG”, the binding signal is reported as 4140 fluorescence intensity (a.u.).
For “GGCCTCGCGTACGGCCGCCACGTGGCCTCGCCGTATCAATCGGAGTCACCTAGTGCAG”, the binding signal was 10600 fluorescence intensity (a.u.).
In the case of “CGGGCGGCTGGTCAGGTCAATGTAACTGTACACAGGCGACCGGAGTCACCTAGTGCAG”, the binding signal is reported as 3390 fluorescence intensity (a.u.).
“GTCTTGGGCCTCCACTCGAGGCTGACACACATGGGCCGTACGGAGTCACCTAGTGCAG” was tested, and the binding signal was 3910 fluorescence intensity (a.u.).
With “TGTATTTGTCATCCAACGCGACACACAAGCATAATACATGCGGAGTCACCTAGTGCAG” the binding signal was 3900 fluorescence intensity (a.u.).
In the case of “AAAAGAATGTTTCCATCTCTCGTACCTTCTCTTTCTAGTACGGAGTCACCTAGTGCAG”, the binding signal is reported as 22400 fluorescence intensity (a.u.).
